Publication PMC11403291
No constants are given. Whether binding was seen depends on the method and setting. Binding seen in cells or lysates may run through a third protein. These calls come from enrichment with a bait or labelling near it, and not all partners need be listed.

By UniProt entry, the sequences of proteins in these tests, tags left out.
UniProt P09874: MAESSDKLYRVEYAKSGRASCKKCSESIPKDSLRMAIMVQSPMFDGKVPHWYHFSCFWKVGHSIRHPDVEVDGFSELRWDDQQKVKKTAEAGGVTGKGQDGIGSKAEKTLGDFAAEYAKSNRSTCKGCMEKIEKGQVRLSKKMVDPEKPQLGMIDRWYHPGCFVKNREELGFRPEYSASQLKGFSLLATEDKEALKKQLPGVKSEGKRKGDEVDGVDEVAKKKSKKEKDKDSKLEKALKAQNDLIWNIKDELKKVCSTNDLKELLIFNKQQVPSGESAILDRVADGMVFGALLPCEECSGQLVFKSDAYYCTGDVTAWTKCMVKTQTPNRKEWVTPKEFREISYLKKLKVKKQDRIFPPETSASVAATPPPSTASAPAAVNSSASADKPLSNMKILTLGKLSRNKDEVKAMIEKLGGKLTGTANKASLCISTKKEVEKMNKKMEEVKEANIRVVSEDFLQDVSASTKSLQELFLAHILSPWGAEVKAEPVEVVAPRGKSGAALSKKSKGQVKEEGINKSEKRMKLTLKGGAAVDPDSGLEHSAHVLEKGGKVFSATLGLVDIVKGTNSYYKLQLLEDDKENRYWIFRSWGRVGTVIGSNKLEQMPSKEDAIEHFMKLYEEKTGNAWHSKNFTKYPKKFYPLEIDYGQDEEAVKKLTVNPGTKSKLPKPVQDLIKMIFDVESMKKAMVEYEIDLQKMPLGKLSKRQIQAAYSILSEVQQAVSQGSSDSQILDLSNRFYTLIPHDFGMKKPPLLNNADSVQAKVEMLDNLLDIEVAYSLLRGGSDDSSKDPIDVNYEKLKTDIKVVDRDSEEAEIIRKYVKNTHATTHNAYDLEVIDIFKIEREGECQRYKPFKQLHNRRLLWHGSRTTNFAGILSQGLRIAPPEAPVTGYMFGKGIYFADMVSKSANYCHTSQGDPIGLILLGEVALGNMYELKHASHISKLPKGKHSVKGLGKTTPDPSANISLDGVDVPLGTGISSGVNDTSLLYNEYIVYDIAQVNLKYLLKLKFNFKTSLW
UniProt P11387: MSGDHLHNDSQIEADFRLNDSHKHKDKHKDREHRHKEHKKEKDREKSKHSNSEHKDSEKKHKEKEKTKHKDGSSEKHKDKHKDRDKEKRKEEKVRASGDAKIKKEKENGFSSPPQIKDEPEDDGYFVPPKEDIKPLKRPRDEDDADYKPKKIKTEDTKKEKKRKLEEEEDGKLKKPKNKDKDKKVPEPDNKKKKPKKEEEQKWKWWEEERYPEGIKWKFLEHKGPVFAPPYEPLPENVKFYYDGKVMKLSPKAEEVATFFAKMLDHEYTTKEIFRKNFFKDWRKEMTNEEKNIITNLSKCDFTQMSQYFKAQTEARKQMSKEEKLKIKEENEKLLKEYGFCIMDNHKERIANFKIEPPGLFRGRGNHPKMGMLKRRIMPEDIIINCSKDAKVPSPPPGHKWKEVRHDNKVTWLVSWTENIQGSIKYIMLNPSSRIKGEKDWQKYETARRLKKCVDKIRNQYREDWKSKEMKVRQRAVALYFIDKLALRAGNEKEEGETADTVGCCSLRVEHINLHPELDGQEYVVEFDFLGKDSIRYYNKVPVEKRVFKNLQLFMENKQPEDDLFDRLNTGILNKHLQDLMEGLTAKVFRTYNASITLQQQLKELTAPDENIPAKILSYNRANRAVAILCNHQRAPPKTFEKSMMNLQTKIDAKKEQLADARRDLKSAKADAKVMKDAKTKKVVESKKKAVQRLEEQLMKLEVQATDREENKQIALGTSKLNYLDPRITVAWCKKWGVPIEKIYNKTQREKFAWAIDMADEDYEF

Biological target: PARP1 (human (endogenous in HEK293, K-562, placenta, HepG2 Princen)) (UniProt P09874)
Test: affinity purification with mass spectrometry

With “DNA topoisomerase (TOP1) (from UniProt P11387 1-765) (enzyme)” the binding was “binds”.
